Among all 53,000 sequences or so, about 3,700 (7%) were called active.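 The calls were made as follows: active = gene knockdowns whose robust z-score for IL-1 alpha signal is at least 2 or at most -2, so actives lie on both sides; inactive = the rest.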 Some of the results follow.
experiment: Components of the Cytosolic LPS Sensing Pathway: Gene Identification via Genome-wide siRNA Screen; details: RAW264.7 macrophages, IL-1a HTRF, actives lie on both sides, screened at 100 nM (by protocol), cells primed 5 h with Pam3CSK4 first;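 also: robust z of the log signal after scaling to non-targeting control siRNA wells of the plate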
Method in brief: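 IL-1a HTRF of supernatants after 24 hour LipidA transfection of Pam3CSK4-primed (5 hours) RAW264.7 cells, 48h post-siRNA transfection (100 nM). Scores: percent of plate negative-control median, then log-based robust z-score.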

Sequence	z-score
GCCGUAGGUUAGAGAAUCGTT against Nxnl1	inactive: -0.348
GGAAGCUAUGAGUUUGGAATT against Rsph1	inactive: -0.732
GGACCUUUAGCUGGUUUAGTT against Sowaha	inactive: 0.559
GCUUAGAACCCUUUUACAATT against Anp32a	inactive: -0.14
GGGUCUUGUGAGAAAGUAUTT against Fads1	inactive: -1.37
GGUGACAAACAAAAACAAATT against Zdhhc14	inactive: -1.72
GGAAAACAGCUUUGAUUGGTT against Tmem232	inactive: 0.868
GGACAUGCAGCAAAUCCAUTT against Ninj1	inactive: -0.264
GGUACCUUUGCUACAUAAATT against Pramel48	inactive: 0.869
UCUCCUUCCUAACUUCAACTT against Tmem252	inactive: 0.747
CCCUGUGAAAUAUUGAUAATT against Vmn1r32	inactive: 0.0683
GGAGAACGGCUACAACACATT against Fgf22	inactive: -1.41
GGGAGUAGAUUCCAUUCCATT against Rnpep	inactive: 1.63
CCUACUACACCACUUGGGUTT against Dpm2	inactive: 0.365
GGAGCUACAAUCUGAAGUATT against Ppp1r2-ps9	inactive: 1.47
GGGAUGUAGUAAGCAAAGUTT against Gpc4	inactive: 0.69
GGAUCAGAUAAAGCAAAUUTT against Eif3b	inactive: 0.0607
GGUGUAACAUCAAAGCAGATT against Tkfc	inactive: -0.216
GGACUUGCCUUGAUCGCUATT against Mars2	inactive: 0.853
UGCCACUGCCAAAAAAUAATT against Tex18	inactive: -0.838
GGAAUUCCAUUUUCAGAAATT against Lrrd1	inactive: -0.393
GGAGAAGAAGGUUCUUGCCTT against Hoxb13	inactive: -1.03

Sequence	z-score
GCAGAAGUGCUAUUCUUGUTT against Cnbp	inactive: 0.108
GGGACUGGAAUCAAUGAACTT against Rgn	inactive: 0.396
GCUUUGGACGAACGAAUGCTT against Rassf6	inactive: 0.832
GCAACUGUUCUACGUCUGATT against Tmprss2	inactive: 1.63
GGGUCAAAGGUCAAGGCUCTT against Gpr20	inactive: 0.074
GGUUGACCAGAUUGAGAAATT against Scaf11	inactive: -0.128
GGACAAAAAAGAAGGUGAATT against A730049H05Rik	inactive: -1.12
GGUCUUCACACAACGAACUTT against Mxd4	inactive: -0.618
CCAUUAAGCAGCAAUAUUUTT against Pcdhga11	inactive: -0.0617
GGAAGAAGGGUUUCAACGGTT against Mef2d	inactive: 0.0569
GGACUUCACUUUUCUAUGATT against Tmem64	inactive: 1.47
GGAGACCUUCUGUUUUCUGTT against Ptcd1	inactive: -0.303
GGAUUUGGUGAACAUCCGUTT against Setd6	inactive: -0.114
GGUGGAUCUGAAUAAGUGCTT against Sdhb	inactive: -1.37
GCUGAUUGUCAAGGAAUAUTT against Tspyl1	inactive: -0.816
CGAGAUUUUUGUAUCGUUUTT against Kat14	inactive: 1.57
GAUGCUGGUUGACCUCCUATT against Olfr368	inactive: 0.288
GCCCUGAAAUAGAAGUUGGTT against A930024E05Rik	inactive: 0.735
UGCCUCAAUCAUAAGUCCCTT against Olfr730	inactive: -0.551
GGUCGUGAGCUUUAUGAGATT against Myo1d	inactive: 0.429
CCAAAGUGUUCCAAAAUCATT against Zfp729a	inactive: -0.296
GCAUUAGGAAAGUAAUAAGTT against Olfr11	inactive: -0.513

Two entries from above, as labelled records:
GGUUGACCAGAUUGAGAAATT against Scaf11
  z-score: inactive: -0.128
GGACAAAAAAGAAGGUGAATT against A730049H05Rik
  z-score: inactive: -1.12

(next part)

Sequence	z-score
GGAGAGAUGGAUACAUUUCTT against Atp5j	inactive: 1.65
GGAAGAUGAUGCUUUCAAATT against Il18	inactive: -0.0314
GGUGCUGGAUGAAUUUGGGTT against Zp1	inactive: -0.416
GGAUGCUUGGCUGAAGAACTT against Ptprs	inactive: -0.296
GGACUUCACAAUUUAAGUUTT against Il5	inactive: 0.141
AACUAUACGUCCGCUCACUTT against C8g	inactive: -0.213
UCACAACUGUCUGUUCUCATT against Klk1b3	inactive: -1.19
GCAUUGUUAGUACUUAGCUTT against Vmn1r216	inactive: 0.0791
CGACAACAAUCUGGCCUAUTT against Ap2s1	active: 2.09
GGUCAAGCCAGUGGGCUAATT against Tpgs1	inactive: -1.38
GCCUCUUUAUAAUAUAAGGTT against Pcgf6	inactive: -0.687
GGAGCUGAUGACUUCAGGCTT against Mmp19	inactive: 1.17
GGAUCUGGUGACAAACGUATT against Cabyr	active: 2.04
GGGUUUUAUCUGUAGUACATT against Gon4l	inactive: 1.96
CCAUUGUGUUAAUUCAUGGTT against Kcnj15	inactive: 0.644
GCCUCGAUUCACCAAGUGUTT against Ghr	inactive: -0.663
GGUGUGGAUCUUUCGUAAUTT against Il1f9	inactive: 0.696
GCACAUGGUUAUGGUGAAATT against Cd200r1	inactive: 0.108
GGAGUUCUUUCAGACCUUATT against Cidea	inactive: -0.414
GGGCAGCAUUUUUCUGAUATT against Mfap3	inactive: 0.196
GGCUUUAAGACAUAGUACUTT against Lbh	inactive: 1.53
GGAGCUGACAGACUUCCUGTT against Fosl1	inactive: -1.51

No new results follow: entries from further up.
Sequence	z-score
GCCUCUUUAUAAUAUAAGGTT against Pcgf6	inactive: -0.687
GGAGCUGAUGACUUCAGGCTT against Mmp19	inactive: 1.17
GGAUCUGGUGACAAACGUATT against Cabyr	active: 2.04

Remaining list, next part.

Sequence	z-score
GGAAUGGACCGGGUUCAUCTT against Fktn	inactive: -0.318
GGAAUUUUCUACAUGUGUGTT against Lim2	active: -2.12
GGAAAGAAACUUAAAGUGGTT against Tfdp1	active: 2.64
GGACUUUGGACUUUCUAUUTT against Mettl16	inactive: -1.07
GGAUCACAACAAAAUAUCCTT against Gm6288	inactive: 1.49
GAAACUCUGUGAAUAUAACTT against Zfp97	inactive: 0.633
GCCAACAAAGUGAUCGAAGTT against Fkbp10	inactive: 0.175
GGACAUCCAUCAUUACUUUTT against Slc26a2	inactive: -0.136
CGGGAUUCUAAAAAAAGUGTT against Hibadh	inactive: 0.296
GCAAAGUGGUUAUUUGAAATT against Xirp2	inactive: 0.00987
GCCUGUUACAGGAAUCAGGTT against Mex3a	inactive: 1.76
CGGACGGCAGAAGAAAAAGTT against Zfp652	inactive: 0.674
GGGAUGGCCUUUGGUUAAATT against Vmn1r203	inactive: -0.133
GGGUCUGUCAAGAUUGACATT against Fsip1	inactive: -1.36
GGCCCAAGAGAAUAUCCAGTT against Gm6460	inactive: 0.281
GGGAUUUUGUGAUGUCCGCTT against Mmp23	inactive: 0.422
GCUAAGACAGAACUCUUCUTT against Nap1l5	active: 3.14
GGUGGAGUUAGAAAACUACTT against BC048679	inactive: -0.341
CCCUUAAUGAGACAAGGCATT against A630023P12Rik	inactive: 0.0231
GGAAGAUGAGGAGAAAGACTT against Rin3	inactive: -1.07
GGAGGCAUGCCCUAUGAAUTT against Zfp11	inactive: 1.4
GGAGCUGUGCGGUCUGUUATT against Mul1	inactive: -0.626

Sequence	z-score
GGGCAGCUGGUCAAAAGUCTT against Nars2	inactive: -0.0638
GGAAAACCACAAAACAUGATT against Muc20	inactive: -0.33
CCCGUCUCUUAAUCUGUUGTT against Ptprr	inactive: -0.774
GGAAGCCGAGAAUACAGCATT against Wdr44	inactive: -0.806
GCAGCUCCUUUAUACCCACTT against Mxra7	inactive: -1.25
CCAGAAACUCGCAUAUCACTT against Tmem184b	inactive: -0.294
GGAUGACACCAAGAAAUAUTT against Rtl5	inactive: 0.0144
GGACAUUGCCCACAUGACCTT against Rnf227	inactive: -0.15
GCUAGAGACUGUUUGCACGTT against E2f8	inactive: 0.256
CCCAACAUAUUUUUUAGCATT against Hmgcll1	inactive: -0.506
CCACUGUUACCAUUAUAAUTT against Pramel4	inactive: -0.594
GGCAUGAGGUUCAAGAUUUTT against Hsd17b6	inactive: -0.0961
CGCGAACUCUCCCUUACUUTT against Mgat4e	inactive: -0.522
GGCUUUUUCCUAAACUUGGTT against Nt5c	inactive: 1.19
GGCCUAUUUUUUCAUAGUUTT against Ptprs	inactive: 0.0729
GGUGCUGCUAUUCCUGCACTT against Gpam	active: -2.03
GGUUCAGCAGUUGUCUGAGTT against Ccdc172	inactive: 0.159
GGUAGAAUACGUGUUCCUGTT against Cacna1f	active: 2.79
GGAUAACGAUCCUUUUGACTT against Prss21	inactive: -0.547

— PubChem BioAssay AID1508600 (Functional Genomics Laboratory (NCATS/FGL), 2020)
